Measured values from publication PMC10353047, “Guianensin, a Simulium guianense salivary protein, has broad anti-hemostatic and anti-inflammatory properties” (Frontiers in Immunology, 2023).
Results are given in words; binding and its absence hold for the method and conditions named. Some results given as binding are weak or reduced against the parent protein; the word gives no strength.

T1: Guianensin (Simulium guianense) (UniProt F5GTK6)
T1 sequence: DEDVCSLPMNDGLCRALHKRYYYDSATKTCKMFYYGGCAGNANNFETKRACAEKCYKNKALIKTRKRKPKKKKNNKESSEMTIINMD


Key:
[1] = target: T1, Guianensin (Simulium guianense); assay: SPR; Biacore T200; Guianensin immobilised at 1250 RU on a CM5 chip by amine coupling; binding analysis with all analytes at a single concentration of 100 nM; both purified
[2] = target: T1, Guianensin (Simulium guianense); assay: SEC; Superdex200 10/30 column; purified recombinant Guianensin runs as a single peak at the expected mass; both purified

| Binder | binding [1] | binding [2] |
| --- | --- | --- |
| human factor XIIa (enzyme, UniProt P00748 20-372; P00748 373-615) chain 1: IPPWEAPKEHKYKAEEHTVVLTVTGEPCHFPFQYHRQLYHKCTHKGRPGPQPWCATTPNFDQDQRWGYCLEPKKVKDHCSKHSPCQKGGTCVNMPSGPHCLCPQHLTGNHCQKEKCFEPQLLRFFHKNEIWYRTEQAAVARCQCKGPDAHCQRLASQACRTNPCLHGGRCLEVEGHRLCHCPVGYTGAFCDVDTKASCYDGRGLSYRGLARTTLSGAPCQPWASEATYRNVTAEQARNWGLGGHAFCRNPDNDIRPWCFVLNRDRLSWEYCDLAQCQTPTQAAPPTPVSPRLHVPLMPAQPAPPKPQPTTRTPPQSQTPGALPAKREQPPSLTRNGPLSCGQRLRKSLSSMTR chain 2: VVGGLVALRGAHPYIAALYWGHSFCAGSLIAPCWVLTAAHCLQDRPAPEDLTVVLGQERRNHSCEPCQTLAVRSYRLHEAFSPVSYQHDLALLRLQEDADGSCALLSPYVQPVCLPSGAARPSETTLCQVAGWGHQFEGAEEYASFLQEAQVPFLSLERCSAPDVHGSSILPGMLCAGFLEGGTDACQGDSGGPLVCEDQAAERRLTLQGIISWGSGCGDRNKPGVYTDVAYYLAWIREHTVS | binds | – |
| Guianensin (natural protein, precursor of 106 amino acids, predicted signal peptide of 19 amino acids removed; numbers count on: the mature protein; Synthetic gene for the mature peptide, with a 6x-His tag before the stop codon; Monomeric by SEC; also called recombinant Guianensin; mature Guianensin) DEDVCSLPMNDGLCRALHKRYYYDSATKTCKMFYYGGCAGNANNFETKRACAEKCYKNKALIKTRKRKPKKKKNNKESSEMTIINMD | – | no binding |
